Screening data, single-dose tests

Data taken from ChEMBL document CHEMBL3988442, “University of Dundee, Small-Polar-MMV Screening Library” (2021).

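Whole-cell growth test on Mycobacterium tuberculosis, read after 4 days in a medium based on cholesterol and the lipid DPPC; the read-out is not stated. Compounds at 50 µM. Direction is inferred from retests: higher values go with more growth inhibition. About 69,000 compounds were tested under these conditions; 0.54% (about 370) showed 50% or more at least once.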

Values are the deposited “Percent Effect”, in %. The controls that fix the scale are not given in the record; negative values are as filed. Compounds were drawn at random from those tested, without regard to their results. Two or more numbers in one place are separate tests of the same structure; such repeats can differ widely.

CCCNC(=O)COc1ccc(C)cn1 read 8.271%.
[H][C@@]12CCN(Cc3cc(C)on3)C[C@@]1([H])O[C@@H](C)C2 read 7.335%.
O=C(O)C(F)(F)F.O=S(=O)(C1CC1)N1Cc2[nH]nc(COCC3CC3)c2C1 read 11.22%.
Cc1c(C(=O)NC2CCCOC2)nnn1-c1ccccc1 (stereo not drawn) read -3.595%.
COc1ccc([C@@H]2C[C@H](NC(C)=O)C[C@H](CCc3ccccc3)O2)cn1 read 7.557% and 15.61%.
CCOCC1CN(CCOc2ccc(Cl)cc2)Cc2c1cnn2C.O=C(O)C(F)(F)F.O=C(O)C(F)(F)F (stereo not drawn) read 19.75% and 15.23%.
O=C(O)C(F)(F)F.[H][C@]12OCCC[C@]1([H])N(C(=O)COC)C[C@H]2OCc1cccnc1 read -11.61%.
COCCCN1CCCC12CCN(Cc1cccnc1OC)CC2.O=C(O)C(F)(F)F.O=C(O)C(F)(F)F read 2.116%.
CC(=O)N[C@@H]1CN(C2CCN(c3ccccc3F)CC2)C[C@H]1C(C)C read 2.508%.
CN1CCN(C2CCN(Cc3nc(-c4ccoc4)no3)CC2)C1=O read -4.682%.
COc1cccc(OCC2CCCN(C(=O)c3cc(C)n[nH]3)C2)c1 (stereo not drawn) read -18.31%.
[H][C@]12CN(C(=O)c3ccno3)CCN1C(=O)N(Cc1ccc(F)cc1)C2 read 17.71%.
CC(C)n1cc(C(=O)N2CCC(n3cc(C(C)(C)C)nn3)CC2)cn1 read 2.077%.
CC(C)N1CCC(CC(=O)NC(C(=O)O)c2cc(F)ccc2F)CC1 (stereo not drawn) read -15.15%.
O=C(c1cn[nH]c1)N1CCC2(CCCN(Cc3ccc(F)c(F)c3)C2)C1 (stereo not drawn) read 14.11%.
Cn1c(=O)[nH]c(=O)n2c(CC(=O)Nc3ccc(Cl)c(Cl)c3)cnc12 read 3.539%.
Cc1cc2[nH]cc(C(=O)N3CCCCC3c3ccc(F)cc3)c(=O)n2n1 (stereo not drawn) read -1.205% and -0.2148%.
COc1cc(C)nc(N2CCN(C(C)c3nc(C)no3)CC2)n1 (stereo not drawn) read -24.62%.
CC(C)C(NC(=O)c1ccccc1)C(=O)N1CCC2(CC1)OCCO2 (stereo not drawn) read -5.851%.
Cc1cc(C)c2nc(C)c(C(=O)N3CCC(N4CCCC4)CC3)cc2c1 read 4.161% and 9.511%.
[H][C@@]12CCCCCN(C)[C@@]1([H])[C@H](c1ccccc1)CN2S(=O)(=O)C(C)C read 8.251%.
O=C(NC1CCCN(c2ccc(OC(F)F)cc2)C1)c1cnc[nH]1 (stereo not drawn) read -12.26%.
Cc1ncc(C(=O)N2CCCC2c2c(C)nn(C)c2C)s1 (stereo not drawn) read -4.625%.
c1cc(CNCC2CNc3ccnn3C2)cc(N2CCCCC2)n1 (stereo not drawn) read -12.79%.
COc1ncc(C2(O)CCN(Cc3cc(F)cc(F)c3)CC2)c(OC)n1 read 2.217%.
CC(=O)Nc1cccc2c1ccn2CC(=O)Nc1ncc[nH]1 read -2.375%.
O=C(CN1CCOC(CNc2cccnn2)C1)N1CCCCC1 (stereo not drawn) read -5.741%.
CC(=O)N1CCCCC1c1ncnn1-c1ccc2nc(C)sc2c1 (stereo not drawn) read 12.43%.
CC(C)N1CCCc2sc(C(=O)NC3CC3)nc21 read 0.1345%.
CCc1noc(CN(CCc2ccccc2)C2CCN(C)CC2)n1 read -8.418%.
CN1CCN(c2ccccc2CNC(=O)Cc2ccccc2F)CC1 read -7.106%.
CS(=O)(=O)N1CCc2ccc(=O)n(CC3CCOCC3)c2CC1 read -4.961% and -17.2%.

4 of the entries, repeated:

compound,percent effect
CC(C)C(NC(=O)c1ccccc1)C(=O)N1CCC2(CC1)OCCO2 (stereo not drawn),-5.851
CC(=O)N[C@@H]1CN(C2CCN(c3ccccc3F)CC2)C[C@H]1C(C)C,2.508
CCCNC(=O)COc1ccc(C)cn1,8.271
c1cc(CNCC2CNc3ccnn3C2)cc(N2CCCCC2)n1 (stereo not drawn),-12.79